Binding data for four substances are collected here from paper PMC10201418.

Chains of the proteins cited; added tags and fusions are not shown.
UniProt P67870: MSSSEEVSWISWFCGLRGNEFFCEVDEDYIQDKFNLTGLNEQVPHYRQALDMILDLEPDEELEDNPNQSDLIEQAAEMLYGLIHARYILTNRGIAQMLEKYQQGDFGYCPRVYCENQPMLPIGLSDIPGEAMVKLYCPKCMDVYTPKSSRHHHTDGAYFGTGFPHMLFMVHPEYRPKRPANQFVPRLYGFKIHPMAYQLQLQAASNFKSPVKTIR
UniProt P68400: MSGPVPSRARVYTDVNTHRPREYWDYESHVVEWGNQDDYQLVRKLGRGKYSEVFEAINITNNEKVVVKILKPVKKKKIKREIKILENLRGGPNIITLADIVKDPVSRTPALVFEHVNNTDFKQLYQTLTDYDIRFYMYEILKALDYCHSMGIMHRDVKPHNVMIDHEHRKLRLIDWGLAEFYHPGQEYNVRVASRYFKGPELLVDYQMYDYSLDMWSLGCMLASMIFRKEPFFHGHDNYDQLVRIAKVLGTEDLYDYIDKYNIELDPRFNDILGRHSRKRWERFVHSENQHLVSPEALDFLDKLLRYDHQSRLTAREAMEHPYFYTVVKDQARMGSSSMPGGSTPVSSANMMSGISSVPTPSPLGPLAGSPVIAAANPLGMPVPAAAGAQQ

Results are given in words; binding and its absence hold for the method and conditions named. For some of these results: Binding seen in cells or lysates may run through a third protein. Some results given as binding are weak or reduced against the parent protein; the word gives no strength. Tags and fused reporters may be left off the sequences shown.

Assay [1] concerns the target T1, IRF1 tagged with a C-terminal FLAG epitope (IRF1-FLAG) (UniProt P10914).
T1 sequence: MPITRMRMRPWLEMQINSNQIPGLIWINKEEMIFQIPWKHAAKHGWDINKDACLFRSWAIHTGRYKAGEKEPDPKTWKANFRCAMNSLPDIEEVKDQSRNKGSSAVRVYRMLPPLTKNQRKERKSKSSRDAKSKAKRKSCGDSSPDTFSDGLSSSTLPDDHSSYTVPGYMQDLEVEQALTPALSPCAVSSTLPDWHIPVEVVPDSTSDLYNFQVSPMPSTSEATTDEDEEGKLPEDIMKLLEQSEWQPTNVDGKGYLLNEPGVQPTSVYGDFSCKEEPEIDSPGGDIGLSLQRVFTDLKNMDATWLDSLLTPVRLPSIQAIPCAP
Put plainly: co-IP.

The target in assay [2] is T1, IRF1 tagged with a C-terminal FLAG epitope (IRF1-FLAG). Kind of assay: pull-down; in vitro pull-down with purified IRF1-FLAG and recombinant human CSNK2B; who was held and the conditions are not stated; both purified.

As for “CSNK2A2, catalytic alpha-subunit of casein kinase 2 (endogenous) (from UniProt P19784 1-350)”, the binding entry in assay [1] is listed as “binds”.

Consider “CSNK2B, regulatory subunit of casein kinase 2 (endogenous) (from UniProt P67870 1-215)”, for which, in assay [1], the binding entry is “binds”.

Take “CSNK2A1, catalytic alpha-subunit of casein kinase 2 (endogenous) (from UniProt P68400 1-391)”: in assay [1], the binding result was “binds”.

For the substance “recombinant human CSNK2B (rCSNK2B) (from UniProt P67870 1-215)”, the binding entry in assay [2] is “binds”.
